Laboratory results: PubChem BioAssay AID743454 (Peter MacCallum Cancer Centre, 2014)

Test: 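Knock-downs lowering viability or raising caspase 3/7 activity in vorinostat-treated resistant cells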 (primary screen)
Cells: human HCT116-VR colon cancer cells, selected for vorinostat resistance
Reagent: siRNA pool against human genes, 40 nM siRNA pool
Duration: vorinostat for 24 h, read-out about 72 h after transfection
Conditions: vorinostat at 2.5 µM final
Measurement: 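Two measures, CellTiter-Fluor viability and luminescent caspase 3/7 activity, each as fold change against same-plate mock wells, mean of duplicates, then screen-wide robust z-score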
Direction: viability robust z-score: higher = more viable cells than screen typical; caspase robust z-score: higher = more caspase 3/7 activity than screen typical
Hit rule: 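a knock-down is a hit when classed RV1 or RV2 for lowered viability, or CA1 or CA2 for caspase activation; those lethal without drug were dropped; hits were retested singly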
The whole screen tested about 18,000 reagents; shown is a part drawn at random. Over the whole deposit, 450 (2.5%) are marked active. 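Single biological run; no consistent viability z cut-off exists, so the class columns, not z-scores, define the calls.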 Entries without a mark were called inactive.

| target | PubChem SID | viability hit class | caspase hit class | viability robust z-score | caspase robust z-score |
| --- | --- | --- | --- | --- | --- |
| SMAD3 (SMAD family member 3) | SID134323809 | no change | no change | 0.7 | -0.06 |
| SFT2D1 (SFT2 domain containing 1) | SID134320200 | no change | no change | 0.26 | -0.64 |
| INCENP (inner centromere protein) | SID152156360 | no change | no change | -1.04 | 2.35 |
| TRIM77 (tripartite motif containing 77) | SID135624864 | no change | no change | 0.6 | 0.19 |
| EFCAB6 (EF-hand calcium binding domain 6) | SID135622696 | no change | no change | 0.54 | 0.13 |
| IL6ST (interleukin 6 cytokine family signal transducer) | SID134310783 | no change | no change | 0.22 | -0.23 |
| RNF170 (ring finger protein 170) | SID152150085 | no change | no change | -0.1 | -0.15 |
| ZBED8L (ZBED8 like) | SID152151355 | no change | no change | 0.26 | -0.67 |
| ANKRD20A1 (ankyrin repeat domain 20 family member A1) | SID135622822 | no change | no change | -0.28 | 3.77 |
| TOR4A (torsin family 4 member A) | SID135624039 | no change | no change | 0.67 | 2.37 |
| CSNK1A1 (casein kinase 1 alpha 1) | SID152148946 | no change | no change | -0.68 | 0.26 |
| BST2 (bone marrow stromal cell antigen 2) | SID134316134 | no change | no change | -0.84 | -0.45 |
| NCDN (neurochondrin) | SID135622410 | no change | no change | 0.14 | 2.5 |
| SLC17A7 | SID134312465 | no change | no change | -0.24 | 1.08 |
| ELOVL5 (ELOVL fatty acid elongase 5) | SID152155152 | no change | no change | 0.28 | -0.12 |
| SETD5 (SET domain containing 5) | SID135624746 | no change | no change | 0 | -0.09 |
| PCP2 (Purkinje cell protein 2) | SID152148566 | no change (active) | CA2 (caspase activation) | -0.94 | 5.24 |
| TRMT2B (tRNA methyltransferase 2B) | SID134322549 | no change | no change | 1.51 | 0.43 |
| METTL6 (methyltransferase 6, tRNA N3-cytidine) | SID152155256 | no change | no change | 1.1 | -0.74 |
| DNAH9 (dynein axonemal heavy chain 9) | SID135621730 | no change | no change | -0.55 | 2.18 |
| TMEM176A (transmembrane protein 176A) | SID134322966 | no change | no change | -0.16 | 2.06 |
| TEX35 (testis expressed 35) | SID152147588 | no change | no change | 0.28 | 0.18 |
| ANKRD28 (ankyrin repeat domain 28) | SID152154151 | no change | no change | 0.52 | -0.2 |
| SETD6 (SET domain containing 6, protein lysine methyltransferase) | SID134318633 | no change | no change | -0.68 | 0.24 |
| DPYSL2 (dihydropyrimidinase like 2) | SID152151218 | no change | no change | -1.87 | 0.84 |
| DTX4 (deltex E3 ubiquitin ligase 4) | SID152152790 | no change | no change | -0.18 | 0.53 |
| IGFBP1 (insulin like growth factor binding protein 1) | SID152152679 | no change | no change | -0.01 | -1.27 |
| GABRP (gamma-aminobutyric acid type A receptor subunit pi) | SID134311595 | no change | no change | -0.05 | -0.5 |
| GGT7 (gamma-glutamyltransferase 7) | SID152155597 | no change | no change | -0.08 | 4.65 |
| NT5E (5'-nucleotidase ecto) | SID134313103 | no change | no change | 2.12 | -1.02 |
| SEC62 (SEC62 preprotein translocation factor) | SID152153389 | no change | no change | -0.5 | 1.19 |
| DYNLL2 (dynein light chain LC8-type 2) | SID134311823 | no change | no change | 0.34 | -0.49 |
| ELAPOR1 | SID152153312 | no change | no change | -0.12 | 0.57 |
| MPP3 (MAGUK p55 scaffold protein 3) | SID152152750 | no change | no change | -0.93 | 3.72 |
| PDE6H (phosphodiesterase 6H) | SID134312698 | no change | no change | 0.05 | -0.86 |
| PGM2L1 (phosphoglucomutase 2 like 1) | SID152150657 | no change | no change | -1.15 | 0.14 |
| PUS7 (pseudouridine synthase 7) | SID135622930 | no change | no change | -0.38 | -1.03 |

The list goes on, starting with the last 7 of the part before.
| target | PubChem SID | viability hit class | caspase hit class | viability robust z-score | caspase robust z-score |
| --- | --- | --- | --- | --- | --- |
| SEC62 (SEC62 preprotein translocation factor) | SID152153389 | no change | no change | -0.5 | 1.19 |
| DYNLL2 (dynein light chain LC8-type 2) | SID134311823 | no change | no change | 0.34 | -0.49 |
| ELAPOR1 | SID152153312 | no change | no change | -0.12 | 0.57 |
| MPP3 (MAGUK p55 scaffold protein 3) | SID152152750 | no change | no change | -0.93 | 3.72 |
| PDE6H (phosphodiesterase 6H) | SID134312698 | no change | no change | 0.05 | -0.86 |
| PGM2L1 (phosphoglucomutase 2 like 1) | SID152150657 | no change | no change | -1.15 | 0.14 |
| PUS7 (pseudouridine synthase 7) | SID135622930 | no change | no change | -0.38 | -1.03 |
| PLA2G2A (phospholipase A2 group IIA) | SID135621857 | no change | no change | -0.73 | 0.16 |
| ACVR1 (activin A receptor type 1) | SID152154539 | no change | no change | 1.27 | -0.32 |
| NGEF (neuronal guanine nucleotide exchange factor) | SID134314109 | no change | no change | 0.17 | -0.64 |
| MOS (MOS proto-oncogene, serine/threonine kinase) | SID56478732 | no change | no change | 1.02 | -0.08 |
| SCGB2A1 (secretoglobin family 2A member 1) | SID135623785 | no change | no change | 1.45 | -0.18 |
| YARS2 (tyrosyl-tRNA synthetase 2) | SID135624091 | no change | no change | 0.3 | 0.72 |
| H3-3A (H3.3 histone A) | SID152148823 | no change | no change | -0.71 | -0.98 |
| RYK (receptor like tyrosine kinase) | SID152147158 | no change | no change | 1.06 | -0.75 |
| MGAT5 | SID152153240 | no change | no change | 0.97 | -0.51 |
| SLC25A38 | SID135621354 | no change | no change | 1.2 | -0.62 |
| CTSV (cathepsin V) | SID134311269 | no change | no change | -0.12 | -0.2 |
| NUTM1 (NUT midline carcinoma family member 1) | SID152155279 | no change | no change | -0.43 | -0.7 |
| ADCYAP1R1 (ADCYAP receptor type I) | SID134310871 | no change | no change | -1.29 | -0.47 |
| VN1R4 (vomeronasal 1 receptor 4) | SID152147044 | no change | no change | -0.74 | -0.42 |
| CAMKV (CaM kinase like vesicle associated) | SID135620973 | no change | no change | -1.02 | 0.64 |
| TAS2R3 (taste 2 receptor member 3) | SID152150954 | no change | no change | 1.2 | 0.64 |
| BACE2 (beta-secretase 2) | SID135620741 | no change | no change | 1.7 | -0.1 |
| METTL21C (methyltransferase 21C, AARS1 lysine) | SID152153282 | no change | no change | 0 | 2.34 |
| MSMP (microseminoprotein, prostate associated) | SID135625651 | no change | no change | 0.48 | 1.6 |
| EEPD1 | SID152154588 | no change | no change | 1.03 | -0.86 |
